In US20160264593A1 (priority 2013, published 2016):
Further values from the same series stand in other lists.

Conditions: female, Sprague-Dawley (SD), rat, in vivo, iv
Experimental: 100 was administrated via iv route at 0.5, 1.0 and 1.5 mg/kg into SD rats. The blood, liver and brain tissue samples were collected at predetermined times from rats.
Twelve (12) female SD rats per group were dosed by iv with 100. The rats were fasted overnight prior to dosing, with free access to water. Foods were withheld for 2 hours post-dose. Blood, liver and brain tissue samples in two animals each group were collected at each time point, within 10% of the scheduled time for each time point. Two extra animals were used for analytic method development. Blood (>0.3 mL) were collected via aorta abdominalis in anaesthetic animalsinto tubes containing heparin at 15 min, 1, 2, 6, 10 and 24 hours after iv administration. Liver and brain tissues were collected immediately after animal death. The liver and brain tissues were excised and rinsed with cold saline to avoid blood residual. Upon collection, each sample was placed on ice and the blood samples were subsequently centrifuged (4° C., 11000 rpm, 5 min) to separate plasma. The obtained plasma, liver and brain tissue samples were stored at −70° C. until LC-MS/MS analysis.
AUC0-∞ (AUC/NF) is the area under the plasma concentration-time curve with last concentration extrapolated based on the elimination rate constant.

CN1CCN(C(=O)C2C3CCC(O3)C2C(=O)O)CC1 (centres unmarked) [Compound 100, 3-(4-methylpiperazine-1-carbonyl)-7-oxa-bicyclo[2,2,1]-heptane-2-carboxylic acid]
100 brain concentration (0.5 mg/kg, 0.25 h): 19.5 ng/g | 100 liver concentration (1.5 mg/kg, 6 h): 471 ng/g
